Assay [1] addresses Flag-NS5A (from HCV-Con1, genotype 1b) (hepatitis C virus Con1 (genotype 1b)) (UniProt Q9WMX2). In words: co-IP; HEK293T cells co-transfected with tagged CIDEB and a tagged HCV protein; lysis buffer 50 mM Tris pH 7.4, 150 mM NaCl, 0.5% NP-40, 1.0 mM EDTA; IP with anti-Flag, anti-HA or anti-GFP antibody and protein A/G beads at 4 °C; blot with anti-HA, anti-Flag or anti-NS3.
The target in assay [2] is NS5A from genotype 1b (HCV-Con1), two-hybrid fusion (hepatitis C virus Con1 (genotype 1b)) (UniProt Q9WMX2). In words: two-hybrid; Yeast mating: AH109 with NS5A constructs in pGBKT7, Y187 with CIDEB constructs in pGADT7; growth on SD/-Trp/-Leu/-His/-Ade and SD/-Trp/-Leu/-His with 2 mM 3-AT, 30 °C, 5 to 8 d.

In article PMC4901263 one finds binding data, which are given here for 3 molecules.

These are yes or no findings as the source states them, for the method shown. For part of these data: Binding seen in cells or lysates may run through a third protein. Some results given as binding are weak or reduced against the parent protein; the word gives no strength. Tags and fused reporters may be left off the sequences shown.

B1: HA-CIDEB (Mus musculus) (protein, UniProt O70303 1-219)
chain: MEYLSAFNPNGLLRSVSTVSSELSRRVWNSAPPPQRPFRVCDHKRTVRKGLTAASLQELLDKVLETLLLRGVLTLVLEEDGTAVDSEDFFQLLEDDTCLMVLEQGQSWSPKSGMLSYGLGREKPKHSKDIARITFDVYKQNPRDLFGSLNVKATFYGLYSMSCDFQGVGPKRVLRELLRWTSSLLQGLGHMLLGISSTLRHVVEGADRWQWHGQRHLHS
For B1, the binding entry in assay [1] is reported as “no binding”.

B2: CIDEB in pGADT7 (activation-domain fusion) (protein, UniProt Q9UHD4 1-219)
chain: MEYLSALNPSDLLRSVSNISSEFGRRVWTSAPPPQRPFRVCDHKRTIRKGLTAATRQELLAKALETLLLNGVLTLVLEEDGTAVDSEDFFQLLEDDTCLMVLQSGQSWSPTRSGVLSYGLGRERPKHSKDIARFTFDVYKQNPRDLFGSLNVKATFYGLYSMSCDFQGLGPKKVLRELLRWTSTLLQGLGHMLLGISSTLRHAVEGAEQWQQKGRLHSY
As to B2, the binding entry in assay [2] was “binds”.

B3: HA-CIDEB (Homo sapiens), cell-death-inducing DFFA-like effector B (protein, UniProt Q9UHD4 1-219)
chain: MEYLSALNPSDLLRSVSNISSEFGRRVWTSAPPPQRPFRVCDHKRTIRKGLTAATRQELLAKALETLLLNGVLTLVLEEDGTAVDSEDFFQLLEDDTCLMVLQSGQSWSPTRSGVLSYGLGRERPKHSKDIARFTFDVYKQNPRDLFGSLNVKATFYGLYSMSCDFQGLGPKKVLRELLRWTSTLLQGLGHMLLGISSTLRHAVEGAEQWQQKGRLHSY
On to B3, for which, in assay [1], the binding result is “binds”.
